At least one compound was matched to its structure with a doubt left.
Test system: peripheral T-cell lymphoma (PTCL)
Assay: Phase II clinical study of tipifarnib in relapsed or refractory PTCL patients
Format: in vivo, human
From the text: A Phase II clinical study of tipifarnib can be conducted with the primary objective being to assess the antitumor activity of tipifarnib, in terms of Objective Response Rate (ORR) in subjects with relapsed or refractory advanced peripheral T-cell lymphoma (PTCL). Determination of objective tumor response can be performed by the International Workshop Criteria (IWC) and/or measurable cutaneous disease according to the modified Severity Weighted Assessment Tool (mSWAT). Secondary objectives can include accessing the effect of tipifarnib on rate of progression-free survival (PFS) at 1 year, duration of response (DOR), overall survival (OS); and safety and tolerability of tipifarnib.
This Phase II study investigates the antitumor activity in terms of ORR of tipifarnib in subjects with PTCL. Up to 18 eligible subjects with advanced PTCL are enrolled. The total number of patients can be extended to 30.
Subjects receive tipifarnib administered at a starting dose of 900 mg, orally with food, twice a day (bid) for 7 days in alternating weeks (Days 1-7 and 15-21) in 28 day cycles. At the discretion of the investigator, the dose of tipifarnib can be increased to 1200 mg bid if the subject has not experienced dose limiting toxicities at the 900 mg dose level. […]

Cn1cncc1[C@@](N)(c1ccc(Cl)cc1)c1ccc2c(c1)c(-c1cccc(Cl)c1)cc(=O)n2C [tipifarnib]
response by CXCL12/CXCR4 ratio (subjects with CXCL12/CXCR4 ratio greater than 0.200): PR or stable disease (SD)
response by CXCL12/CXCR4 ratio (subjects with CXCL12/CXCR4 ratio less than or equal 0.200): did not show PR or SD
